# Measurements published in PubChem BioAssay (EPA / NIEHS).
# Sequences of proteins named here, by UniProt entry; tags and fusion partners are left off. A change or cut given only in a name is not applied to a line headed by its entry.
# UniProt P04799: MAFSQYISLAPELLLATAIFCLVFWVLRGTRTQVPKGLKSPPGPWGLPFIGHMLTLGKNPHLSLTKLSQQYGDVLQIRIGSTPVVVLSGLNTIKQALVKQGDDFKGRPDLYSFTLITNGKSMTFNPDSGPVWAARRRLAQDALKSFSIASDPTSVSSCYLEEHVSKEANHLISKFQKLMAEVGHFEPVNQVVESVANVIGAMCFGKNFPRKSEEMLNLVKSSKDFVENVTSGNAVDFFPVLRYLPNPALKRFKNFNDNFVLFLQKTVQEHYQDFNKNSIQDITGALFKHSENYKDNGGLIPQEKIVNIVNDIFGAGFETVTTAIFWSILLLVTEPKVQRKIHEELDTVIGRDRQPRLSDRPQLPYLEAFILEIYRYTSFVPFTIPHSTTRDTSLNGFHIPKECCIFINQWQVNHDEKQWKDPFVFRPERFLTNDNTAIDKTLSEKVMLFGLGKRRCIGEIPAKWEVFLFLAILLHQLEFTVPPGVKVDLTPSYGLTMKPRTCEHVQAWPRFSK
# UniProt P16257, whole entry, looked up: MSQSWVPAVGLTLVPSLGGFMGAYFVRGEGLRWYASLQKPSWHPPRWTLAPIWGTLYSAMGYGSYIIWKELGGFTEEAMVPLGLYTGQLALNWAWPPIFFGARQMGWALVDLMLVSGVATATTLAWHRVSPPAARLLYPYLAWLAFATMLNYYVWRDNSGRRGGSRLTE
# UniProt P41146: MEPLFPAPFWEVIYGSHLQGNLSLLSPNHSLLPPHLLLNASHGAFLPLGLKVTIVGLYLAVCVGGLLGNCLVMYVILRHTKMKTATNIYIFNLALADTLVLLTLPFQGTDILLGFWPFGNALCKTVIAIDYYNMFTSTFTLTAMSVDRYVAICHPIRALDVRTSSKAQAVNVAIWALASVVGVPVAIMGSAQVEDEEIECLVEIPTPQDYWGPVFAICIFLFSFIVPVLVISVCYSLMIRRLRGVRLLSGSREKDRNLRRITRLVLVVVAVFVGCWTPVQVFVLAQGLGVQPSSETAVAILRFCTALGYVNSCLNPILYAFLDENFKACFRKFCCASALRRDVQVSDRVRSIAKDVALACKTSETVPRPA
# UniProt P22909, whole entry, looked up: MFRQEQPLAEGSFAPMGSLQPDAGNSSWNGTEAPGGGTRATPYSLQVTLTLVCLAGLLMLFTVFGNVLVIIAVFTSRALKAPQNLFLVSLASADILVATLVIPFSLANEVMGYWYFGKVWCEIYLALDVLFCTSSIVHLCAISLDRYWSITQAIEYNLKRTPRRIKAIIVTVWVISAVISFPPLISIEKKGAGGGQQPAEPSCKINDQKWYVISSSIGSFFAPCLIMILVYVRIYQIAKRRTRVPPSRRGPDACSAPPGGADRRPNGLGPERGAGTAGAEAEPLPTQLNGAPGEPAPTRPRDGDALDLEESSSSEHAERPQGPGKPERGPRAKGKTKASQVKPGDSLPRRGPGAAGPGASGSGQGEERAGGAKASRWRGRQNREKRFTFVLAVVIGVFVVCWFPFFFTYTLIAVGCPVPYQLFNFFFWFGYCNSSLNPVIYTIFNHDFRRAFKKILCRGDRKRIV
# UniProt P35813: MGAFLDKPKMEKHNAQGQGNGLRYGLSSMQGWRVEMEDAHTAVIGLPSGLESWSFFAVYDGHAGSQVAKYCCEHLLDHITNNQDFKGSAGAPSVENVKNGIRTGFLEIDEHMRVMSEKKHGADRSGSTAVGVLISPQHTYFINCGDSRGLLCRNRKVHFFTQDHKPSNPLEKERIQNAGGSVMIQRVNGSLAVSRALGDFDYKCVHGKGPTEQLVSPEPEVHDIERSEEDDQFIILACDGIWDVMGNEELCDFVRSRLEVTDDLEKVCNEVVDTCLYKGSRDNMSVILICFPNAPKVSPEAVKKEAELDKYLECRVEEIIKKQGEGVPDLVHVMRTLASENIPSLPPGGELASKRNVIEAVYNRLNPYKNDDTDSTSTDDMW
# UniProt P03372, whole entry, looked up: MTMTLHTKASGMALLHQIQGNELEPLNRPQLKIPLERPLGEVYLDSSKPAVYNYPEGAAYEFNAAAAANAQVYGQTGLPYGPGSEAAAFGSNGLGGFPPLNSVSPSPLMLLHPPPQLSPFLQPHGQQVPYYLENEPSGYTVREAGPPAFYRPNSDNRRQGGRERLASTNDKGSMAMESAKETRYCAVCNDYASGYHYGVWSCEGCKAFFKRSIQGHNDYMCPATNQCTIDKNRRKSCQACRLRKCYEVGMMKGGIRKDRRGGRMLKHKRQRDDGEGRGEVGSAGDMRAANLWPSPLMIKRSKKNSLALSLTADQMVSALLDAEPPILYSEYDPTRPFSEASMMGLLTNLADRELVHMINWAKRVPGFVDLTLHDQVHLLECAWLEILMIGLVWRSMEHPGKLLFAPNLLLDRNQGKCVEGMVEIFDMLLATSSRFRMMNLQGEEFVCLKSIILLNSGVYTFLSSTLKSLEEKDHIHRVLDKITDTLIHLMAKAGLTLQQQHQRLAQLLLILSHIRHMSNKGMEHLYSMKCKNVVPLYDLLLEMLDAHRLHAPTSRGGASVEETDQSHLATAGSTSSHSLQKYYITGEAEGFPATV
# UniProt P04386, whole entry, looked up: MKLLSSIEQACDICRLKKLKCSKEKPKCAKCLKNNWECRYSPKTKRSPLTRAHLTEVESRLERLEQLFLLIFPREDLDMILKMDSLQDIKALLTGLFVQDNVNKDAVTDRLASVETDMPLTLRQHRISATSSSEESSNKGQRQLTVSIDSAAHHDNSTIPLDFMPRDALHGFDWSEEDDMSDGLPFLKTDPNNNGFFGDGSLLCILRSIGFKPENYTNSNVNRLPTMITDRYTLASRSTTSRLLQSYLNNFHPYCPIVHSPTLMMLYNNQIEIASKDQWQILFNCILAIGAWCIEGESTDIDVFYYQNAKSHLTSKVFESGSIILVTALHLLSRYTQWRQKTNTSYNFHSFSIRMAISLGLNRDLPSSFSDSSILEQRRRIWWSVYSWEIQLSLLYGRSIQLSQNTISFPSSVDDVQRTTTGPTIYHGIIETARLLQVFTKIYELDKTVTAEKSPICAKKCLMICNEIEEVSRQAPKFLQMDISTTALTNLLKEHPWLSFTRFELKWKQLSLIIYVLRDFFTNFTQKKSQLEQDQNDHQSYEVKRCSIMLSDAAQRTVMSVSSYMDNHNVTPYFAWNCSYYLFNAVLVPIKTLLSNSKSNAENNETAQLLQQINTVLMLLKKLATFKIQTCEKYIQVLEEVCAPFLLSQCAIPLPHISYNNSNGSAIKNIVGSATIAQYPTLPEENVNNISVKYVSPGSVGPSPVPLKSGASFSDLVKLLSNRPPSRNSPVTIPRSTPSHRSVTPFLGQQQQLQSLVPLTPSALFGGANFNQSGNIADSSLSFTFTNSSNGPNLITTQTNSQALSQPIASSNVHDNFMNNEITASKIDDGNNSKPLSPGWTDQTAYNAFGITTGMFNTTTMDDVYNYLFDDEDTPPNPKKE
# UniProt Q98867: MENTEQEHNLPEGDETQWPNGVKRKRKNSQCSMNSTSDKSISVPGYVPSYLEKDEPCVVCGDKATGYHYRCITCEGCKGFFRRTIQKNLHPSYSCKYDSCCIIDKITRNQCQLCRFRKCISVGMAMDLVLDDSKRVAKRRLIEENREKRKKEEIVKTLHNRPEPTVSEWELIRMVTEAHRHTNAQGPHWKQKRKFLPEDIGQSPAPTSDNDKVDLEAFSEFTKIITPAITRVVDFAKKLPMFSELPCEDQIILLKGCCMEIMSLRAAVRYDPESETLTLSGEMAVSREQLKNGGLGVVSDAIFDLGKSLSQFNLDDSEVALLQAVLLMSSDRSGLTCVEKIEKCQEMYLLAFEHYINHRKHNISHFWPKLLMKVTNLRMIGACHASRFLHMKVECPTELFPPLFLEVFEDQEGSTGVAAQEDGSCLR
# UniProt P28190, whole entry, looked up: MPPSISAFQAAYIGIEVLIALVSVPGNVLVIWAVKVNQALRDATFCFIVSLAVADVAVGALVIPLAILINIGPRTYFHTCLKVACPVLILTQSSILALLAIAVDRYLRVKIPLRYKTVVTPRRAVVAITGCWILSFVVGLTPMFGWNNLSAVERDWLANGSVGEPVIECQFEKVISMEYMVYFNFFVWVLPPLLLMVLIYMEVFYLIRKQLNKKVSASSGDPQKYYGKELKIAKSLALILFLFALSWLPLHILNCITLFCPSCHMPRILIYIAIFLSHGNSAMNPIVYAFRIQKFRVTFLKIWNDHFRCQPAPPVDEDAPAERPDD
# UniProt P10275: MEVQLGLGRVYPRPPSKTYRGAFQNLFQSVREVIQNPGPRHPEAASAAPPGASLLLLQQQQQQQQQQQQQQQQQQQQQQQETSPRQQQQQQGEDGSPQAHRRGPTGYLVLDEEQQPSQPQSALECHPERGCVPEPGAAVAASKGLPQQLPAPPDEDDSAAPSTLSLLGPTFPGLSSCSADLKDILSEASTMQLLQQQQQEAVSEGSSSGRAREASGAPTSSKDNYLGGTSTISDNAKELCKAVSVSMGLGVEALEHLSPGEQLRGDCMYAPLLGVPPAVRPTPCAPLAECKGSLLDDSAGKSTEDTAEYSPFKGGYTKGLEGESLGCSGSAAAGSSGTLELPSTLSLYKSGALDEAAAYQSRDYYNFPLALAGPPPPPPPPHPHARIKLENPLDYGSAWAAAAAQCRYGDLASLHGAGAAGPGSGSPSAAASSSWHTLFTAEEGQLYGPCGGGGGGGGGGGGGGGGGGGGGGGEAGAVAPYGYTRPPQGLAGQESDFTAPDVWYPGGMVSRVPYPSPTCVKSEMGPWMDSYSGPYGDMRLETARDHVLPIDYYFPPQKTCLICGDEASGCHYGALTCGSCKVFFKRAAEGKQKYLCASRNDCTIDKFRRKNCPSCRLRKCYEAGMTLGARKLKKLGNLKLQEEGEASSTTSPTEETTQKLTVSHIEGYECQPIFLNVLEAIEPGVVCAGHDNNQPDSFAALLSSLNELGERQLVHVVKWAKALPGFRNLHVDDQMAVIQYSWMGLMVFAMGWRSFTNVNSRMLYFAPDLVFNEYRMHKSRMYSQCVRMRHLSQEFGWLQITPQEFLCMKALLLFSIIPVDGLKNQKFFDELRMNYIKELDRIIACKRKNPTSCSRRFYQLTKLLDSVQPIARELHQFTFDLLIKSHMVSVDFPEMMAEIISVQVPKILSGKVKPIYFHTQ
# UniProt P28223, whole entry, looked up: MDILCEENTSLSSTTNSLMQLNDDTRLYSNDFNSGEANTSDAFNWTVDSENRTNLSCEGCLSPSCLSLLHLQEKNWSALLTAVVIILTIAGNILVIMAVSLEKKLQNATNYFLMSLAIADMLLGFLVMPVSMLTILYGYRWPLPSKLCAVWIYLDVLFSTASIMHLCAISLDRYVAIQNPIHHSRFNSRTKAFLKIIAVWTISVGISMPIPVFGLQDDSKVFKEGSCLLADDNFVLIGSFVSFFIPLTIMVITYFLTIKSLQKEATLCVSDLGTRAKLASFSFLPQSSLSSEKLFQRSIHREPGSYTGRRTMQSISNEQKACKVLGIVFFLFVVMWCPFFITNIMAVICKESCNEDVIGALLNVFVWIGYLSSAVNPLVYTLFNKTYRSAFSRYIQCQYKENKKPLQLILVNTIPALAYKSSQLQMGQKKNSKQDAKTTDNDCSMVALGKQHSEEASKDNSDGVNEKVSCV
# UniProt P11712, whole entry, looked up: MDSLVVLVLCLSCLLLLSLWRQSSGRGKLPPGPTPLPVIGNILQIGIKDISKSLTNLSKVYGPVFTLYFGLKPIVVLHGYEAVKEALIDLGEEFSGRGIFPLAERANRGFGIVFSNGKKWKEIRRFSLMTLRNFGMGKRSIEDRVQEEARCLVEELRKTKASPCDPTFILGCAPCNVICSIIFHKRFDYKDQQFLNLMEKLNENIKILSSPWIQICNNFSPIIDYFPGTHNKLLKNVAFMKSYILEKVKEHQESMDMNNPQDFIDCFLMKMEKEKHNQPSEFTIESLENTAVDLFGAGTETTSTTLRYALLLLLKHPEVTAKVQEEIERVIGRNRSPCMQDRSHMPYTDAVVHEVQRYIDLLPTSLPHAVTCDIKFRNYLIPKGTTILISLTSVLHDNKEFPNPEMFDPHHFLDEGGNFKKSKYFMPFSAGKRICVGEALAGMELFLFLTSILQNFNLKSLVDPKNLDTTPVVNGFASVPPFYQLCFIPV
# UniProt P30536, whole entry, looked up: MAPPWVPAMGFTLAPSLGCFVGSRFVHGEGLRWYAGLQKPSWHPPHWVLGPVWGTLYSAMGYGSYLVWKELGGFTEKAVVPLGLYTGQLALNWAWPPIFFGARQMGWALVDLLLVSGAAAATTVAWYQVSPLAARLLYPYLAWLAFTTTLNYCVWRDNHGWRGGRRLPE
# UniProt P21452, whole entry, looked up: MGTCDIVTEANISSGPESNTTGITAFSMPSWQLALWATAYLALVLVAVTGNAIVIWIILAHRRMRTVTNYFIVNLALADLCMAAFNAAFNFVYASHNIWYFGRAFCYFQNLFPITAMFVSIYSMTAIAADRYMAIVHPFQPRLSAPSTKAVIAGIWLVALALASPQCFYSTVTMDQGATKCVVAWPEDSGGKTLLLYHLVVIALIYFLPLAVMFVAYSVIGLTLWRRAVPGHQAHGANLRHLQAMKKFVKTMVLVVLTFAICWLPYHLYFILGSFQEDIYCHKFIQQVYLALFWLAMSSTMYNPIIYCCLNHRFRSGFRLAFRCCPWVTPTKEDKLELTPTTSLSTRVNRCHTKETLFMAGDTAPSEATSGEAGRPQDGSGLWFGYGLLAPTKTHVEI
# Where “and” joins values, the source holds several entries; their conditions need not be identical. Identical values can stand only once. Inconclusive means that the source gave no clear call. Such entries were picked first, then a sample of the others. For some of these results: Potencies of inconclusive entries are doubtful fits and often do not repeat. Some compounds were tested as several samples or in several runs, with calls that do not always agree. Calls of active or inactive are those of the source. The calls were made as follows: active = hit-call score of the fitted dose curve at least 0.9, where 1 is the maximum; inconclusive = response in the unintended direction; inactive = score below 0.9.
# How the values were obtained:
# [1] = biological target: rat CYP1A2, Cyp1a2 (gene 24297) (UniProt P04799); experiment: NVS_ADME_rCYP1A2: NovaScreen (NVS) CYP450-related Enzyme Activity (ADME) Assay for rat CYP1A2 (AID 2283115)
# Method in brief: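 Primary testing ran in duplicate at 10 uM, with actives re-tested across concentration series. Fluorescence intensity from substrate turnover by recombinant protein, measured 1 hour post-dosing, with signal loss scored against acetonitrile vehicle.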
# [2] = biological target: rat Peripheral-type Benzodiazepine Receptor (PBR), Tspo (gene 24230) (UniProt P16257); experiment: NVS_MP_rPBR: NovaScreen (NVS) Membrane Protein Assay for rat Peripheral-type Benzodiazepine Receptor (PBR) (AID 2283335)
# Method in brief: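 Single-concentration duplicate screening at 25 uM preceded concentration-series retesting of actives. Binding of a specific radioligand to rat kidney membrane PBR was read by filtration radiodetection after 1 h, with plate-wise positive and negative controls.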
# [3] = biological target: human Orphanin, Opioid Related Nociceptin Receptor 1 (ORL1), OPRL1 (gene 4987) (UniProt P41146); experiment: NVS_GPCR_hORL1: NovaScreen (NVS) G Protein-Coupled Receptor Assay for human Orphanin, Opioid Related Nociceptin Receptor 1 (ORL1) (AID 2283283)
# Method in brief: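 Cell-free binding using HEK293-derived receptor protein: radioligand displacement measured by filter scintillation 1 hour after dosing. Primary testing at 25 uM in duplicate, followed by singleton concentration series up to 50 uM; DMSO served as negative control.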
# [4] = biological target: rat Adrenergic Receptor, Alpha 2 (Adra2), Non-selective Binding, Adra2a (gene 25083) (UniProt P22909); experiment: NVS_GPCR_rAdra2_NonSelective: NovaScreen (NVS) G Protein-Coupled Receptor Assay for rat Adrenergic Receptor, Alpha 2 (Adra2), Non-selective Binding (AID 2283299)
# Method in brief: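 Filter-based scintillation counting of radioligand binding to rat cortical membrane receptors, measured 1.25 hours post-dosing; loss of signal versus DMSO indicates displacement. Initial single-concentration duplicate at 25 uM, then concentration series.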
# [5] = biological target: human Protein Phosphatase, Mg2+/Mn2+ Dependent 1A (PPM1A), PPM1A (gene 5494) (UniProt P35813); experiment: NVS_ENZ_hPPM1A: NovaScreen (NVS) Enzymatic Assay for human Protein Phosphatase, Mg2+/Mn2+ Dependent 1A (PPM1A) (AID 2283198)
# Method in brief: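 Primary screen in duplicate at 25 uM, with actives then titrated to a maximum of 50 uM. Recombinant PPM1A dephosphorylation of fluorescent substrate measured at 1 h, with substrate and product separated by mobility shift; inhibition fitted against DMSO.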
# [6] = biological target: Estrogen receptor (Homo sapiens) (UniProt P03372); experiment: OT_ER_ERaERa_0480: Odyssey Thera (OT) 8-hour HEK293T Protein-Complementation Assay for Estrogen Receptor-alpha/-alpha Homodimer (AID 2283351);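 also: rise in fluorescence from reassembled reporter fragments on ERα LBD homodimer in nucleus or whole cell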
# Method in brief: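 Read-out: fluorescence intensity rise relative to DMSO, nuclear for agonists, nuclear plus cytoplasmic for antagonists. Construct is the ERα LBD (aa 310-547) homodimer fragment-complementation pair, stably expressed in HEK293T; exposure 8 h.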
# [7] = biological target: GAL4 Transcription Factor (Internal Marker), GAL4 (gene 855828) (UniProt P04386); experiment: ATG_GAL4_XSP2: Attagene TRANS-FACTORIAL Multi-Species (XSP2) HepG2 Assay for GAL4 Transcription Factor (Internal Marker) (AID 2283814);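 also: GAL4 reporter mRNA background control in MRTU transfected cells not a receptor target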
# Method in brief: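 Background-control readout: gain-of-signal fitted against DMSO. After 24 h exposure of transfected HepG2 (MRTU, GAL4-UAS reporters; 3 nM 6-alpha-fluorotestosterone, 1.5 nM norgestrel present), transcripts quantified by RT-PCR and capillary electrophoresis fluorescence.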
# [8] = biological target: zebrafish Thyroid Hormone Receptor alpha (TRa), thraa (gene 30670) (UniProt Q98867); experiment: ATG_zfTRa_XSP2: Attagene TRANS-FACTORIAL Multi-Species (XSP1) HepG2 Assay for zebrafish Thyroid Hormone Receptor alpha (TRa) (AID 2283832);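 also: actives raise zebrafish TRa-Gal4 reporter transcript above DMSO baseline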
# Method in brief: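 Readout is reporter mRNA induction, quantified by RT-PCR and capillary electrophoresis with fluorescent labelling, after 24 h compound exposure of transiently transfected HepG2 cells carrying NR-Gal4 chimera reporters. Activity fitted upward relative to DMSO.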
# [9] = CCTE_Mundy_HCI_hNP1_Pro_ResponderAvgInten: CCTE's Proliferation Assay in human neuroprogenitor cells, Mundy Lab (AID 2284224);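 also: human neural progenitor cells hNP1 derived from WA09 embryonic stem cells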
# Method in brief: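 Human neuroprogenitors (hNP1, WA09 lineage) receive test chemical after 40 to 44 hours of attachment. A four-hour BrdU pulse begins twenty hours later, followed by fixation and high content imaging; signal is referenced to DMSO controls.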
# [10] = biological target: Adenosine receptor A1 (Bos taurus) (UniProt P28190); experiment: NVS_GPCR_bAdoR_NonSelective: NovaScreen (NVS) G Protein-Coupled Receptor Assay for bovine Adenosine Receptor (AdoR), Non-selective Binding (AID 2283244)
# Method in brief: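 Cell-free binding with membranes from bovine striatum: radioligand displaced by test chemical, read after 1 h by filtration and scintillation. Single-point 25 uM duplicate primary, 50 uM top concentration in follow-up curves, DMSO baseline.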
# [11] = biological target: Androgen Receptor/SRC-1 Co-activator, AR (gene 367) (UniProt P10275); experiment: OT_AR_ARSRC1_0480: Odyssey Thera (OT) 8-hour HEK293T Protein-Complementation Assay for Androgen Receptor/SRC-1 Co-activator (AID 2283354);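 also: hits raise the complementation signal above DMSO so AC50 marks enhancers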
# Method in brief: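 After 8 h dosing, stably expressing HEK293T cells with split-Venus AR/SRC-1 fusions were imaged (488, 635nm). The 488nm N/C ratio per image gave the endpoint, analysed in the positive direction against DMSO.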
# [12] = biological target: human Serotonin, 5-Hydroxytryptamine Receptor 2A (5HT2A), HTR2A (gene 3356) (UniProt P28223); experiment: NVS_GPCR_h5HT2A: NovaScreen (NVS) G Protein-Coupled Receptor Assay for human Serotonin, 5-Hydroxytryptamine Receptor 2A (5HT2A) (AID 2283249)
# Method in brief: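 Radioligand displacement on human cortex tissue extract, counted by filtration and scintillation 1.5 h post-dosing. Initial single-concentration screen at 25 uM in duplicate, concentration series in follow-up; DMSO as baseline.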
# [13] = biological target: human Opioid Receptor Delta 1 (Opiate D1), OPRD1 (gene 4985) (UniProt P41143); experiment: NVS_GPCR_hOpiate_D1: NovaScreen (NVS) G Protein-Coupled Receptor Assay for human Opioid Receptor Delta 1 (Opiate D1) (AID 2283280)
# Method in brief: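 Membrane preparations from CHO cells bearing the human receptor were incubated 1 h with test chemical, and bound radioligand was counted after filtration. Actives from 25 uM duplicate screening were retested in concentration-response.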
# [14] = biological target: human CYP1A1, CYP1A1 (gene 1543) (UniProt P04798); experiment: NVS_ADME_hCYP1A1: NovaScreen (NVS) CYP450-related Enzyme Activity (ADME) Assay for human CYP1A1 (AID 2283100)
# Method in brief: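 Read-out: fluorescence intensity from enzymatic turnover of substrate by recombinant CYP1A1, loss of signal indicating inhibition. Incubation 1 h post-dose. Primary single-point 10 uM in duplicate; actives rerun singly with top concentration 20 uM.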
# [15] = biological target: human CYP2C9, CYP2C9 (gene 1559) (UniProt P11712); experiment: NVS_ADME_hCYP2C9: NovaScreen (NVS) CYP450-related Enzyme Activity (ADME) Assay for human CYP2C9 (AID 2283108)
# Method in brief: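 Cell-free assay of recombinant human CYP2C9 produced in Sf9 cells, with enzyme activity read by fluorescence intensity 0.75 h after compound addition. Loss of signal versus an acetonitrile negative control indicates inhibition. Primary screen used 10 uM in duplicate; actives were retested in concentration series.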
# [16] = ArunA_NOG_NeuriteLength: ArunA Biomedical's Neurite Outgrowth (NOG) Assay for Neurite Length (AID 2283757)
# Method in brief: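 Total neurite length per neuron, from traced βIII-tubulin-labelled processes longer than 10 um on viable Hoechst-gated cells, was scored as decrease from DMSO. Cells were hESC (H9)-derived neurons given 48 h chemical exposure immediately after seeding.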
# [17] = biological target: human Peripheral-type Benzodiazepine Receptor (PBR), TSPO (gene 706) (UniProt P30536); experiment: NVS_MP_hPBR: NovaScreen (NVS) Membrane Protein Assay for human Peripheral-type Benzodiazepine Receptor (PBR) (AID 2283331);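 also: hits reduce radioligand binding relative to DMSO baseline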
# Method in brief: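 Using human colon-derived membranes, this one-endpoint binding test reads radioligand loss by scintillation after 1 h. Screening started at 25 uM in duplicate, with positive and negative controls on every plate, and actives moved to dose series.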
# [18] = Tanguay_ZF_120hpf_CFIN_legacy: (Legacy) Oregon State University Tanguay Lab 120 Hour Post-fertilization zebrafish Assay for Caudal Fin Malformation (AID 2283649)
# Method in brief: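 Dechorionated 5D wild-type zebrafish, static exposure 6–120 hpf, 28C, sealed and dark, 0.64% v/v DMSO final. Binary fin-malformation call at 120 hpf, brightfield; gain of signal vs DMSO baseline.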
# [19] = biological target: human Opioid Receptor Mu (Opiate Mu), OPRM1 (gene 4988) (UniProt P35372); experiment: NVS_GPCR_hOpiate_mu: NovaScreen (NVS) G Protein-Coupled Receptor Assay for human Opioid Receptor Mu (Opiate Mu) (AID 2283290);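 also: hits lower bound tracer signal versus DMSO meaning displacement of the ligand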
# Method in brief: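 Here, radioligand binding to CHO-extracted receptor was measured after 2.5 h using filter-based scintillation detection. Initial single-concentration screening used 25 uM in duplicate with plate controls; confirmed actives went to concentration-response testing.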
# [20] = biological target: human Neurokinin, NK2 Receptor, TACR2 (gene 6865) (UniProt P21452); experiment: NVS_GPCR_hNK2: NovaScreen (NVS) G Protein-Coupled Receptor Assay for human Neurokinin, NK2 Receptor (AID 2283278);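 also: actives reduce bound radioligand signal relative to DMSO baseline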
# Method in brief: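 Test chemicals displace a radioligand from receptor prepared from CHO cells in a cell-free format, read after 4 hours by scintillation counting on filters. Screening starts at 25 uM in duplicate, and active chemicals then go to concentration series.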
structure (smiles),measurement,setting,value
COc1cc2ncnc(Nc3cccc(Cl)c3)c2cc1OC,AC50,[1],inconclusive: 137 nM
same,outcome,[2],inactive
CCCCCCCCN(C)C,AC50,[3],inconclusive: 4.96 µM
same,outcome,[4],inactive
c1ccc2c(c1)ccc1ccccc12,AC50,[5],inconclusive: 6.82 µM
same,outcome,[6],inactive
same,outcome,[7],inactive
same,AC50,[8],inconclusive: 2.07 µM and inconclusive: 82.2 nM
CN(CCOc1ccc(CC2SC(=O)NC2=O)cc1)c1ccccn1 (configuration not stated),AC50,[7],inconclusive: 100 nM
same,AC50,[8],inconclusive: 0.00914 nM
CSCCC=O,AC50,[1],inconclusive: 4970 nM
OCCC(F)(F)C(F)(F)C(F)(F)C(F)(F)C(F)(F)C(F)(F)F,AC50,[5],inconclusive: 6.88 µM
same,AC50,[9],inconclusive: 15 µM
O=C(c1ccccc1)c1ccccc1,outcome,[10],inactive
same,outcome,[11],inactive
O=C(CCCCCCCCc1cccnc1)N1CCC(C=C(c2ccccc2)c2ccccc2)CC1,outcome,[12],inactive
same,AC50,[13],inconclusive: 0.525 µM
CC1=CCC(C(C)(C)O)CC1 (configuration not stated),outcome,[11],inactive
CC(C)c1cccc(C(C)C)c1N1C(=O)c2ccc(O)cc2C1=O,AC50,[14],inconclusive: 1.68 µM
same,AC50,[15],active: 4.78 µM
same,AC50,[16],active: 13.3 µM
same,outcome,[16],inactive
CN(C)C(=N)N=C(N)N,AC50,[9],inconclusive: 15 µM
CCCCCCCCCCCCCCCS(=O)(=O)Oc1ccccc1,AC50,[17],inconclusive: 12.5 µM
CC(C)(O)c1coc(S(=O)(=O)NC(=O)Nc2c3c(cc4c2CCC4)CCC3)c1,outcome,[14],inactive
C=CCc1ccc(OC)c(OC)c1,AC50,[15],inconclusive: 18.3 µM
same,AC50,[17],inconclusive: 25 µM
same,AC50,[18],inconclusive: 4.78 µM
Nc1ccc2c(c1)C(=O)c1ccccc1C2=O,AC50,[2],inconclusive: 25 µM
CC1=C(O)C(=O)C(C)O1 (configuration not stated),outcome,[19],inactive
CC(=O)S[C@H](C(=O)N[C@H]1Cc2ccccc2[C@H]2CCC[C@@H](C(=O)O)N2C1=O)C(C)C,AC50,[18],inconclusive: 2.75 µM
CCCCOCCOCCOC(=O)CCCCC(=O)OCCOCCOCCCC,outcome,[17],inactive
Oc1ccccc1O,outcome,[19],inactive
CN1CCCC1=O,AC50,[6],inconclusive: 50 µM
CCCCOCCOCCO,AC50,[10],inconclusive: 25 µM
same,outcome,[20],inactive
same,AC50,[13],inconclusive: 25 µM
CO[Si](CCCNCCN)(OC)OC,outcome,[11],inactive
CC1CCC(C(C)(C)O)CC1 (configuration not stated),AC50,[19],inconclusive: 6.1 µM
CCCCCCC(C=O)=Cc1ccccc1,AC50,[18],inconclusive: 7.23 µM
CC(C)CCO,AC50,[12],inconclusive: 6.7 µM
same,AC50,[20],inconclusive: 604 nM
CN(C)CCC(c1ccc(Cl)cc1)c1ccccn1 (configuration not stated),AC50,[9],inconclusive: 15 µM
CCCCCCCCCC,AC50,[14],inconclusive: 10 µM
same,AC50,[10],inconclusive: 25 µM
same,outcome,[12],inactive
same,outcome,[20],inactive
same,AC50,[13],inconclusive: 25 µM
same,AC50,[3],inconclusive: 6.6 µM
same,AC50,[4],inconclusive: 25 µM
same,AC50,[16],inconclusive: 0.12 µM
COCCOCCOCCOC,AC50,[15],inconclusive: 10 µM
